## Library screening results

From ChEMBL document CHEMBL3988442, “University of Dundee, Small-Polar-MMV Screening Library” (2021).

Results are given as percent effect.
The record does not define 0% and 100%; most values in the screen are far below 50% and negative numbers occur (in some assays of this library far below -100).
This is an unselected part of the compounds tested.

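Whole-cell assay for inhibitors of Mycobacterium tuberculosis growth, labelled Cornell in the record; the read-out is not stated. The concentration is filed as 10 mM, unlikely as a test dose, so the dose is not known. The record gives no direction; compounds strong in two other growth screens of this library score well above the rest, so higher reads as stronger inhibition. About 53,000 compounds were tested under these conditions; 1.7% (about 900) showed 50% or more at least once.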

| Compound | Percent Effect |
|---|---|
| `[H][C@]12CC[C@]([H])(CN(C(=O)c3cccnc3)C1)N(Cc1cc(C)ccc1C)C2` | 10.26 |
| `O=C(CCn1ccccc1=O)Nc1ccc(F)c(Cl)c1` | 18.7 |
| `Cc1cccnc1CN1CCOC(Cc2cccc3ccccc23)C1` (centres unmarked) | 37.77 |
| `O=S1(=O)COCCN1Cc1ccc(F)cc1Cl` | 5.555 |
| `[H][C@@]12CN(C(=O)C3CC=CC3)C[C@]1([H])C(=O)N(Cc1cccc(C)n1)C2` | 12.27 |
| `[H][C@]12CC[C@@]3(N=C(CC)N(CCOC)C3=O)[C@@]1([H])CN(C(=O)NCC(C)C)C2` | 16.37 |
| `Cc1nc(C)n(CC(C)C(=O)N2CCC(CN3CCOCC3)CC2)n1` (centres unmarked) | 0.2728 |
| `Cc1ccc(-c2nc(CNCC3CN(C)CCO3)cs2)o1` (centres unmarked) | -16.83 |
| `Cc1ncc(-c2ccnc(NCCc3ccc(F)cc3)n2)c(=O)[nH]1` | -5.112 |
| `CSCCC(Nc1nc(C)cc(C)n1)C(=O)NCC1CCOCC1` (centres unmarked) | 12.27 |
| `Cc1ccc2c(n1)N(C)CCN(Cc1cnn(C)c1)C2` | 7.035 |
| `CCn1nc(C)c(NC(=O)CN(C)C(C)c2nccs2)c1C` (centres unmarked) | -11.73 |
| `Cc1cc(CN2CCC(c3nccn3C(C)C)CC2)ccc1F` | -23.43 |
| `CCOc1cc(F)ccc1NC1CCN(CC(F)(F)F)C1=O` (centres unmarked) | 35.4 |
| `CC(=O)NCC(=O)N(CCN1CCOCC1)Cc1ccco1` | 11.14 |
| `N#Cc1ccc(N2CCCC2Cn2cncn2)nc1` (centres unmarked) | -33.83 |
| `CCCc1nnc(N(C)CC2CCN(CC(C)C)C2)o1` (centres unmarked) | 13.55 |
| `O=C(O)C(F)(F)F.O=C(c1c[nH]cn1)N1CCOCC2(C1)CN(c1ccccc1)C(=O)CO2` (centres unmarked) | 29.26 |
| `COc1ccc(OC)c(CN2CCc3nc4ccsc4c(=O)n3CC2)c1.Cl` | 28.64 |
| `CCN(Cc1nc2c(cnn2C)c(=O)[nH]1)c1ccc(F)cc1` | -51.56 |
| `CCN1CC2(CC1=O)CN(C(C)=O)CCN(S(C)(=O)=O)C2` (centres unmarked) | 27.99 |
| `O=C(N1CCCC1)C12CC(CN1Cc1nccs1)C2` | 23.22 |
| `[H][C@]12CC[C@]([H])(CN(c3nccnc3OC)C1)N(CC=C(C)C)C2=O` | 21.16 |
| `[H][C@]12CC[C@]([H])(CN(Cc3cccc(-c4cccc(OC)c4)c3)C1)N(C)C2=O` | -8.01 |
| `Cn1ncc2c1CCCC2NCc1cnc(-c2ccccc2)nc1` (centres unmarked) | 1.354 |
| `[H][C@]12CCN(Cc3ccco3)[C@@]1([H])CC[C@H](COCc1ccncc1)O2` | 12.27 |
| `CC(=O)NCCNC(=O)c1cnc(C(C)(C)C)s1` | -8.934 |
| `CCN(Cc1noc(CC(C)C)n1)Cc1cc2ccc(F)cc2[nH]c1=O` | 8.785 |
| `CCC(=O)N1CCC2(CC1)CNC(=O)c1cc(C)ccc1O2` | -14.12 |
| `CC(CN1CCCC1=O)NC(=O)Nc1ccccc1Cn1cccn1` (centres unmarked) | 20.24 |
| `O=C(NCCSCc1ccc(Br)s1)C1CCCN(C(=O)c2cccs2)C1` (centres unmarked) | 5.29 |
| `COC(=O)[C@H](CSC)Nc1nc(C2CCCC2)nc2c1cnn2C` | 19.63 |
| `CCc1nc(C)sc1C(=O)N1CCN(c2ncccc2C)CC1` | 13.4 |
| `CN1CCN(C(=O)c2cc3sccc3n2Cc2ccccc2F)CC1` | 32.07 |
| `COc1cccc(COCC(O)CN(C)c2ccc(C)cc2C)c1` (centres unmarked) | 17.01 |
| `COCCNC(C)c1ccc(-c2cccnc2)cc1` (centres unmarked) | -36.69 |
| `COCCN1CCCC2(CCN(c3cc(C)c(C#N)c(C)n3)C2)C1=O` (centres unmarked) | -23.89 |
| `CC(=O)N1CCC(c2nnc3ccc(C(=O)NCC(C)C)cn23)C1` (centres unmarked) | -2.009 |
| `CN(C)CCCNC(=O)c1cc(Br)c2c(c1)OCCO2` | 11.53 |
| `O=C(NCC1CC1)C1CCC2(CCN(C(=O)c3cccs3)CC2)O1` (centres unmarked) | 9.055 |
| `CC(Cn1cccn1)NCc1nc(-c2ccc3c(c2)OCO3)no1` (centres unmarked) | 3.313 |
| `CCN1CCC(CC(=O)NCCc2nc(N)cc(O)n2)CC1` | -2.261 |
| `O=C(NCc1cccc(N2CCCCC2=O)c1)[C@@H](O)c1ccccc1` | -34.87 |
| `CS(=O)(=O)N1CCC2(CC1)c1ccccc1[C@@H](N1CCSCC1)[C@@H]2O` | -0.07926 |
| `CC(C)CN1CCC2(C=C(C(=O)NC3CC3)c3ccccc32)CC1.O=C(O)C(F)(F)F` | 22.43 |
| `O=C1CN(C(=O)C2CCOCC2)CCN1Cc1ccc(Cl)cc1` | -4.531 |
| `O=C(O)C(F)(F)F.[H][C@@]12CN(Cc3ccc(C)cc3)C[C@]1([H])CN(c1ncccn1)C2` | 14.14 |
| `CCc1[nH]c2c(CNc3cnccn3)cc(F)cc2c1C` | 28.03 |
| `COc1ccccc1Cc1nnc(SCCS(C)(=O)=O)o1` | -21.44 |
| `CCCN(Cc1ccc(OC)nc1)Cc1ccccc1OC` | 10.29 |
| `O=C(CCCC1CCCC1)NS(=O)(=O)CC1CC1` | 34.92 |
| `O=C(O)c1cc(S(=O)(=O)Nc2ccc(F)cc2F)cc2c1OCCO2` | -42.35 |
| `COCC1c2c(cnn2CC2CC2)CCN1Cc1ccsc1.O=C(O)C(F)(F)F.O=C(O)C(F)(F)F` (centres unmarked) | 14.01 |
| `[H][C@@]12CCCO[C@]1([H])[C@H](N1CCN(C)CC1)CN2C(=O)c1ccc(C)nc1` | 6.672 |
| `COc1cccc(-n2cc(-c3ccnc(N[C@@H](CO)C(C)C)n3)cn2)c1` | 17.54 |
| `CCc1ocnc1C(=O)N1CCC(n2cc(-c3ccsc3)nn2)CC1` | 0.1094 |
| `Cc1cc(N2CCC(Cc3ccccc3)CC2)ncn1` | 22.55 |
| `CC(C)CCc1noc(C[S+]([O-])CC(=O)NCc2ccccc2)n1` (centres unmarked) | -9.037 |
| `CC(C)Oc1cc(N2CCC3(CC2)[C@H](O)C[C@@H]3O)nc(N)n1` | -29.58 |
| `CC(=O)N1CCCC(c2ccc(Br)cn2)C1` (centres unmarked) | -26.63 |
| `COCCN1CCCn2c(nc(CNS(C)(=O)=O)cc2=O)C1.O=C(O)C(F)(F)F` | -12.05 |
| `Cc1n[nH]c(C)c1CCCN(C)Cc1c[nH]nc1-c1ccc(F)cc1` | 29.01 |
| `COc1cccc(C(C)Nc2ncnc3c2NC(=O)CN3)c1` (centres unmarked) | -40.08 |
| `Cc1ccc(CN(C)CC2(O)CCCN(C)C2)o1` (centres unmarked) | 7.841 |
| `Cc1csc(N2CCN(CC(=O)Nc3cccnc3)CC2C)n1` (centres unmarked) | 1.484 |
| `CC(C)C(=O)NS(=O)(=O)c1ccc2c(c1)N(C)CCC2` | -19.43 |
| `CNc1cc(C(=O)N(C)Cc2cc(-c3cccs3)n[nH]2)ccn1` | 23.93 |
| `Cc1nc2c(c(NCC(O)C(F)(F)F)n1)CCNCC2` (centres unmarked) | -45.09 |
| `Cc1nn(CC(C)C)c(N(C)C)c1CNCCC(=O)NC(C)C` | 5.424 |
| `COC(=O)NCC(=O)NC1CC(C)(C)Cc2oc(C)cc21` (centres unmarked) | -22.62 |
| `COc1cc2nc3n(c(=O)c2cc1OC)CCN(C(C)=O)CC3` | -47.1 |
| `COc1ccc(CNC(=O)N2CCCC(Nc3ccccc3)C2)cn1` (centres unmarked) | 7.285 |
| `Cn1c(N2CCOCC2)nc2cc(C(=O)N3CCCOCC3)ccc21` | 3.257 |
| `CN(CCc1ccccn1)C(=O)Nc1cccnc1N1CCCC1` | -8.483 |
| `CCN(CC)Cc1cnc2n1CCN(C1CCOC1)CC2` (centres unmarked) | 3.314 |
| `Cc1cc(CN(C)C(=O)CC(C)C)no1` | 12.01 |
| `CN(C)C(=O)C1CSCN1C(=O)CCc1ccco1` (centres unmarked) | -1.87 |
| `COc1ccc(-c2noc([C@@H]3C[C@@H](O)CN3C3CCN(C)CC3)n2)cc1` | -9.503 |
| `Cc1cc(C)n(CC2CCCCN2C(=O)c2ccc3c(c2)COC3)n1` (centres unmarked) | -38.63 |
| `[H][C@]12CC[C@]([H])(CN(C(=O)c3cnccn3)C1)N(C(=O)Cc1ccsc1)C2` | 6.318 |
| `O=C(Nc1nccs1)NC1CCOc2ccccc21` (centres unmarked) | 12.64 |
| `CC(C)(C)c1ccc(C2(C(=O)NCCCS(C)(=O)=O)CC2)cc1` | 5.971 |
| `CN(Cc1cnccn1)C(=O)c1ccc(CSc2nnc[nH]2)o1` | -31.34 |
| `CCn1nc(C)c(CN(CCOC)Cc2ccccn2)c1C` | 5.485 |
| `CCOc1ccc(CN2CCc3nc4ccsc4c(=O)n3CC2)cc1.Cl` | -1.219 |
| `CC(=O)N1C[C@H](NS(=O)(=O)N2CCCC2)[C@@H](c2ccc(C)o2)C1` | -3.905 |
| `O=C(COCC(=O)N(c1ccccc1)c1ccccc1)N1CCOCC1` | 34.21 |
| `Cc1ncnc2c1CCN(C(=O)c1ccnnc1)CC2` | 4.482 |
| `c1cncc(CN2CCc3c(CNc4nccs4)n[nH]c3C2)c1` | -3.552 |
| `CCc1ccc(S(=O)(=O)N2CC3(COC(C)(C)OC3)C2)s1` | -40.57 |
| `[H][C@@]12OCCN(C(=O)C3=CCCC3)[C@@]1([H])CC[C@H]2OC` | 1.639 |

Repeated from the top, 8 entries:

| Compound | Percent Effect |
|---|---|
| `[H][C@]12CC[C@]([H])(CN(C(=O)c3cccnc3)C1)N(Cc1cc(C)ccc1C)C2` | 10.26 |
| `O=C(CCn1ccccc1=O)Nc1ccc(F)c(Cl)c1` | 18.7 |
| `Cc1cccnc1CN1CCOC(Cc2cccc3ccccc23)C1` (centres unmarked) | 37.77 |
| `O=S1(=O)COCCN1Cc1ccc(F)cc1Cl` | 5.555 |
| `[H][C@@]12CN(C(=O)C3CC=CC3)C[C@]1([H])C(=O)N(Cc1cccc(C)n1)C2` | 12.27 |
| `[H][C@]12CC[C@@]3(N=C(CC)N(CCOC)C3=O)[C@@]1([H])CN(C(=O)NCC(C)C)C2` | 16.37 |
| `Cc1nc(C)n(CC(C)C(=O)N2CCC(CN3CCOCC3)CC2)n1` (centres unmarked) | 0.2728 |
| `Cc1ccc(-c2nc(CNCC3CN(C)CCO3)cs2)o1` (centres unmarked) | -16.83 |